Measured values taken from PubChem BioAssay AID504444 (National Center for Advancing Translational Sciences (NCATS), 2011).
Among all 360,000 compounds or so, about 7,500 (2.1%) were called active. Inconclusive means that the source gave no clear call. Such entries were picked first, then a sample of the others. The call rests on the fitted dose curve; in most records, active means well fitted inhibition curve with a large enough effect; inconclusive means small, poorly fitted or top-dose-only effect, or effect the other way; inactive means flat fitted curve, though single readings scatter. Where the call is inconclusive, the potency comes from a doubtful curve fit.
Potency means the concentration at half of the fitted maximal effect.

Assay: Nrf2 qHTS screen for inhibitors; further: nearly all actives have a fitted effect of over 60% in size
Conditions: A549 ARE-Fluc reporter, luciferase luminescence, 18-24 h; series mostly up to 46 µM
Method in brief: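 A549 ARE_Fluc cells (5000/well, 5% FBS OPTI-MEM) pre-incubated 2 h, then treated with compounds 18-24 h at 37C/5% CO2 in concentration-response. CellTiter-Fluor viability read first; BugLite luciferase luminescence after 15 min at room temperature gives Nrf2 activity.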
For `O=C(CSc1nnc(CNC(=O)c2ccccc2)n1-c1cccc(Cl)c1)Nc1ccccc1F`, the Potency was “inactive”.
For `Clc1cccc(Nc2ncnc3ccc(Br)cc23)c1`, the Potency was inconclusive: 25.9 µM [falling, partial curve, poor fit].
For `COc1ccc2[nH]c(=O)c(CN(CC3CCCO3)C(=S)Nc3ccc(C)cc3)cc2c1` (stereo not given), the Potency was inconclusive: 18.4 µM [falling, single point].
For `CC(=NCCc1c(C)[nH]c2ccc(OCc3ccccc3)cc12)C1=C(O)CC(c2ccccc2)CC1=O` (stereo not given), the Potency was “inactive”.
For `CN(CC1COc2ccccc2O1)C(=O)c1ccc(Cl)c(S(=O)(=O)N2CCCCCC2)c1` (stereo not given), the Potency was inconclusive: 29.1 µM [falling, single point].
In the case of `Cc1ccc(-c2csc(/C(C#N)=C/c3ccccc3Cl)n2)cc1`, the Potency was inconclusive: 29.1 µM [activator, single point].
For `CCCNC(=O)c1cnc2sc(N3CCCCC3)nn2c1=O`, the Potency was inconclusive: 8.2 µM [activator, partial curve].
For `Cc1ccc(-n2ncc3c(=O)n(CC(=O)N4CCCc5ccccc54)cnc32)cc1C`, the Potency was inconclusive: 29.1 µM [falling, single point].
In the case of `O=C(CCn1c(=O)sc2ccccc21)NC1CCCCC1`, the Potency was inconclusive: 2.59 µM [activator, full curve].
In the case of `N/C(=N\OC(=O)CC1CCCCC1)c1ccc(Br)cc1`, the Potency was inconclusive: 20.6 µM [activator, partial curve, poor fit].
In the case of `Cc1ccc2cccc(NC(=O)c3ccc(-c4ccc(Br)cc4)o3)c2n1`, the Potency was “inactive”.
In the case of `Cc1noc(-c2ccc(Cl)cc2)c1C(=O)O/N=C(\N)c1ccc(C(C)(C)C)cc1`, the Potency was inconclusive: 23.1 µM [falling, single point].
In the case of `O=S(=O)(c1ccc(F)c(F)c1)N1CCN(c2ccccn2)CC1`, the Potency was inconclusive: 18.4 µM [falling, single point].
With `O=C(NCC1OCCc2ccccc21)c1ccc(NC(=O)c2ccc(Cl)cc2)cc1` (stereo not given) the Potency was active: 20.6 µM.
In the case of `COc1ccc(-n2c(C)nn(CCOc3ccccc3)c2=O)cc1`, the Potency was inconclusive: 10.3 µM [activator, partial curve].
For `CCCCCCN1C=C/C(=C\C=C(C#N)C#N)c2ccccc21`, the Potency was active: 18.4 µM.
For `O=[N+]([O-])c1ccccc1CSc1nc2ccccc2o1`, the Potency was inconclusive: 18.4 µM [activator, partial curve].
With `NS(=O)(=O)c1ccc(CCNC(=O)c2nc(SCc3ccccc3F)ncc2Cl)cc1` the Potency was inconclusive: 32.6 µM [falling, single point].
For `O=C(CCC(=O)Nc1ccc(Br)cc1)N/N=C/c1ccccc1F`, the Potency was “inactive”.
In the case of `O=C(Nc1nnc(-c2ccccc2SCc2ccccc2)s1)Nc1ccccc1F`, the Potency was “inactive”.
In the case of `COc1ccc(-c2cnnc(N/N=C/c3ccc(O)cc3)n2)cc1`, the Potency was “inactive”.
In the case of `COc1cccc(C2C(C(=O)Nc3ccccc3OC)=C(C)Nc3nc4ccccc4n32)c1` (stereo not given), the Potency was “inactive”.
With `CCc1ccccc1Nc1ncnc2c1nc1n2CCCC1` the Potency was inconclusive: 23.1 µM [activator, single point].
In the case of `N=C1/C(=C\c2ccc(OC(=O)c3ccc(F)cc3)cc2)C(=O)N=C2SC(N3CCOCC3)=NN12`, the Potency was inconclusive: 1.46 µM [falling, partial curve, poor fit].
In the case of `Cc1ccc(OCc2cc(C(=O)N3CCCC3)no2)cn1`, the Potency was inconclusive: 32.6 µM [falling, single point].
For `CC1CCN(c2cc(N3CCOCC3)c([N+](=O)[O-])cc2F)CC1`, the Potency was inconclusive: 29.1 µM [falling, single point].
For `Cc1ccc(C)c(-c2nc(Cn3c(=O)cc(-c4ccccc4)c4c(C)nn(C)c43)c(C)o2)c1`, the Potency was inconclusive: 29.1 µM [activator, single point].
For `Cc1c(C(=O)NCc2cccnc2)oc2ccc(S(=O)(=O)N3CCC4(CC3)OCCO4)cc12`, the Potency was inconclusive: 8.2 µM [falling, partial curve, poor fit].
With `Cc1ccc2c(c1)N(C(=O)CCC(=O)NCc1ccccc1)CC(C)O2` (stereo not given) the Potency was inconclusive: 0.082 µM [falling, partial curve, poor fit].
For `COc1ccc(-c2cc3ccccc3oc2=O)cc1NC(=O)c1ccc([N+](=O)[O-])o1`, the Potency was inconclusive: 14.6 µM [activator, partial curve, poor fit].
In the case of `CCC(=O)Nc1nc2ccccc2n1Cc1ccc(C)cc1`, the Potency was inconclusive: 23.1 µM [falling, single point].
With `COc1cccc(C(=O)Oc2ccc(/C=N/Nc3ccc(C(=O)O)cc3)cc2OC)c1` the Potency was inconclusive: 1.3 µM [activator, full curve].
In the case of `O=C(Nc1cc(NC(=O)c2ccccc2Cl)ccc1Cl)c1ccccc1`, the Potency was inconclusive: 2.91 µM [activator, partial curve].
For `COc1ccc(CNC(=O)c2oc3ccc(S(=O)(=O)N4CCOCC4)cc3c2C)cc1`, the Potency was inconclusive: 18.4 µM [falling, single point].
With `COc1ccc2cc(CN(CC3CCCO3)S(=O)(=O)c3ccccc3)c(=O)[nH]c2c1` (stereo not given) the Potency was inconclusive: 25.9 µM [falling, partial curve].
With `OCCSc1ccc2nnc(-c3ccccc3)n2n1` the Potency was “inactive”.
With `CC(OC(=O)/C=C/c1ccco1)C(=O)NC1CCCCC1C` (stereo not given) the Potency was active: 13 µM.
With `O=C(CSc1ccc(-c2ccccn2)nn1)N1CCCc2ccccc21` the Potency was inconclusive: 10.3 µM [falling, partial curve, poor fit].
With `N#Cc1ccc(C(=O)NCC(=O)OC(C(=O)Nc2cc(C(F)(F)F)ccc2Cl)c2ccccc2)cc1` (stereo not given) the Potency was “inactive”.
With `CCOC(=O)N1CCN(C(=O)c2ccc(S(=O)(=O)Nc3cccc(C(F)(F)F)c3)cc2)CC1` the Potency was active: 18.4 µM.
For `COc1cc(SC)ccc1C(=O)NNC(=O)C1COc2ccccc2O1` (stereo not given), the Potency was inconclusive: 18.4 µM [falling, partial curve, poor fit].
For `CCOCCCNC(=O)NC(CCC(C)C)c1c(-n2cccc2)sc2c1CCN(C)C2` (stereo not given), the Potency was inconclusive: 18.4 µM [activator, single point].
For `Cc1ccc(C)c(S(=O)(=O)N/N=C/c2ccc(N(C)C)cc2)c1`, the Potency was “inactive”.
For `CCc1ccc(NC(=O)CSc2cn(CC(=O)N3CCCC3)c3ccccc23)cc1`, the Potency was inconclusive: 29.1 µM [activator, single point].
With `O=C(O)c1ccccc1SCc1cn2cc(Br)ccc2n1` the Potency was inconclusive: 29.1 µM [activator, single point].
For `CCOc1ccccc1NC(=O)N1CCCC(c2nc3c(nnn3Cc3ccc(C)cc3)c(=O)[nH]2)C1` (stereo not given), the Potency was inconclusive: 29.1 µM [falling, single point].
With `CCOC(=O)C1(C)C=C(Nc2ccc(O)cc2)C(=O)N1c1ccc(O)cc1` (stereo not given) the Potency was inconclusive: 0.291 µM [falling, full curve, poor fit].
In the case of `CC(=O)c1cccc(OCc2cc(C(=O)NC3CCN(Cc4ccccc4)CC3)no2)c1`, the Potency was inconclusive: 20.6 µM [falling, single point].
With `Cc1cc(C)cc(NC(=O)N2CCN(C)c3ncccc32)c1` the Potency was “inactive”.
With `COc1cc(/C=N/Nc2ncc(C(F)(F)F)cc2Cl)cc(OC)c1OC` the Potency was inconclusive: 1.3 µM [falling, full curve].
For `N/C(=N\OC(=O)c1ccc(Br)cc1)c1cccc([N+](=O)[O-])c1`, the Potency was inconclusive: 23.1 µM [activator, single point].
With `CN(c1ccccc1)S(=O)(=O)c1cccc(NC(=O)COc2ccccc2)c1` the Potency was inconclusive: 29.1 µM [falling, single point].
With `CCOC(=O)C1=C(N)n2c(s/c(=C\c3ccco3)c2=O)=C(C(=O)OCC)C1c1ccco1` (stereo not given) the Potency was inconclusive: 18.4 µM [falling, single point].
In the case of `COc1ccc(N(CC(=O)NCc2ccccc2)C(=O)CCC(=O)Nc2cc(C)ccn2)c(OC)c1`, the Potency was inconclusive: 29.1 µM [falling, single point].
With `CCn1cc(Cl)c(C(=O)N2N=C3/C(=C/c4cccs4)CCCC3C2c2cccs2)n1` (stereo not given) the Potency was inconclusive: 20.6 µM [falling, partial curve, poor fit].
For `CCOC(=O)C1(Cc2ccccc2C)CCCN(C(=O)c2ccc(CSC)o2)C1` (stereo not given), the Potency was inconclusive: 18.4 µM [falling, partial curve, poor fit].
For `CCn1c(CSc2nc3ccccc3s2)nnc1SCC(=O)c1ccc(O)c(O)c1`, the Potency was inconclusive: 29.1 µM [falling, single point].
In the case of `Cc1ccc(CNC(=O)C(=O)NCC2OCCN2S(=O)(=O)c2ccc(Br)cc2)cc1` (stereo not given), the Potency was active: 16.4 µM.
For `Cc1ccc(CNC(=O)Cn2ccc3ccccc3c2=O)o1`, the Potency was “inactive”.
With `O=C1CC(c2ccco2)CC(O)=C1C=Nc1ccc(Br)cc1` (stereo not given) the Potency was inconclusive: 0.82 µM [falling, full curve, poor fit].
With `CCCN1CCN(CC2=C(C(=O)OCC)C(c3cccc(OC)c3OC)NC(=O)N2)CC1` (stereo not given) the Potency was “inactive”.
For `Cc1ccc2nc3n(c(=O)c2c1)CCCCC3`, the Potency was inconclusive: 9.2 µM [activator, partial curve].
In the case of `COC(=O)c1c(-c2ccccc2)noc1-c1ccccc1`, the Potency was inconclusive: 23.1 µM [activator, partial curve, poor fit].
For `CCC(C)N1CCC2(CC1)N=c1c(c3c4c5c(C)c(O)c3c(O)c1=NC(=O)C(C)=CC=C[C@H](C)[C@H](O)[C@@H](C)[C@@H](O)[C@@H](C)[C@H](OC(C)=O)[C@H](C)[C@@H](OC)C=CO[C@@](C)(O5)C4=O)N2` (stereo not given in full), the Potency was active: 8.2 µM.
In the case of `CC1=C(C(=O)OCc2ccccc2)C(c2ccc([N+](=O)[O-])cc2)NC(=O)N1C` (stereo not given), the Potency was “inactive”.
